{
  "sequences": {"note": "The chains behind the UniProt entries cited, without tags or fusion partners. Residues count along the entry.", "UniProt Q9WUL5, residues 20-247": "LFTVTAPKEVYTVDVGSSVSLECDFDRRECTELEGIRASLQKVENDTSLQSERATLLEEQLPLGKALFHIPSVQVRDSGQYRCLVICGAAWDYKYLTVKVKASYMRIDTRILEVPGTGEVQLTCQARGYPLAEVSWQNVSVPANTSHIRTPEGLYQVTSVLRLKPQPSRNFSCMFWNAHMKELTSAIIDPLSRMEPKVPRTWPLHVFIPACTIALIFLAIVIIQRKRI", "UniProt Q9EP73, residues 19-290": "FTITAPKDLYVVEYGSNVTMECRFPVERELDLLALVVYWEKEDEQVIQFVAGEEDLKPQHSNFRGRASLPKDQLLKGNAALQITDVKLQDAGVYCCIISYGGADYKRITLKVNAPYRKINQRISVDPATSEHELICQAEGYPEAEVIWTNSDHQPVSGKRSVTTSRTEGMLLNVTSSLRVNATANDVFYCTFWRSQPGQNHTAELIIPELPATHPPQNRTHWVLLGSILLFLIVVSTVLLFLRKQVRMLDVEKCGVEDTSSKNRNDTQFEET"},
  "source": "paper PMC5360572",
  "key": {"[1]": {"target": "full-length mouse PD-L2 with C-terminal YFP, on HEK293 cells (mouse) (UniProt Q9WUL5)", "experiment": "flow cytometry on cells; PD-L1 or PD-L2 transfected HEK293 cells incubated with purified human PD-1 Ig fusion proteins; Cy5 anti-human IgG F(ab')2; only the binder purified"}, "[2]": {"target": "full-length mouse PD-L1 with C-terminal YFP, on HEK293 cells (mouse) (UniProt Q9EP73)", "experiment": "flow cytometry on cells; PD-L1 or PD-L2 transfected HEK293 cells incubated with purified human PD-1 Ig fusion proteins; Cy5 anti-human IgG F(ab')2; only the binder purified"}},
  "note": "These are yes or no findings as the source states them, for the method shown. Some binding calls cover weakened binding; strength is not graded here.",
  "data": [
    {"substance": "high-affinity human PD-1 (A132L) Ig fusion protein (from UniProt Q15116 25-170) (Fc fusion)", "values": [
      {"measurement": "binding", "setting": "[1]", "value": "binds"},
      {"measurement": "binding", "setting": "[2]", "value": "binds"}
    ]}
  ]
}
